Results: patent US12195490B2, “STRAD-binding agents and uses thereof” (The Regents of the University of California, priority 2020, dated 2025)

Tested on: ACHN cell line
Assay: drug screen of the SelleckChem kinase inhibitor library with and without 5 uM SU-329, Cell-Titer Glo after 5 days
Format: cell-based
Details: kinase inhibitor at 200 nM with and without 5 uM SU329

| Compound | log2fc |
| --- | --- |
| Cc1ccccc1-n1c(Cn2nc(-c3cccc(O)c3)c3c(N)ncnc32)nc2cccc(C)c2c1=O [PIK-294] | 0.04742 |
| Cc1nc2c(-c3cnc(N)nc3)nc(N3CCOCC3)nc2n1C(C)C [VS-5584 (SB2343)] | −0.3679 |
